# Measured values published in PubChem BioAssay AID624297 (National Center for Advancing Translational Sciences (NCATS), 2012).
# The campaign covered roughly 340,000 compounds. About 6,200 (1.8%) were called active. The inconclusive results got no clear call from the source; some entries with a clear call stand among them for comparison. Calls follow the shape of the dose curve; as a rule, active = well fitted activation curve with a large enough effect; inconclusive = small, poorly fitted or top-dose-only effect; inactive = no such curve, though single readings can be large or run the other way. A potency beside an inconclusive call is a rough fit, not a confirmed value.
# Assay: A quantitative high throughput screen for small molecules that induce DNA re-replication in SW480 colon adenocarcinoma cells. Also: nearly all actives have a fitted effect of over 55% in size. As to re-replication activation: % of control where 0% means no effect.
# Conditions: Hoechst DNA content imaging, 48 h; re-replication activation: at 46.1 µM (top of the series) unless noted
# How it was run: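 Quantitative HTS format with DMSO vehicle controls; 48 hr drug incubation at 37 C, then 40 min Hoechst staining and scanning imager measurement at 405 nm excitation.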
# Potency is read from the fitted curve at half-maximal effect.
Structure (SMILES),Potency,re-replication activation
Cc1cc(C)c2c(N)c3ccccc3nc2n1,"inconclusive: 10.3 µM [activator, partial curve, poor fit]",–
O=S(=O)(Nc1ccccc1O)c1ccc(-c2ccccc2)cc1,"inconclusive: 18.4 µM [activator, single point]",–
OCC1(Cc2cccc(C(F)(F)F)c2)CCN(Cc2cc(F)cc(F)c2)CC1,"inconclusive: 35.5 µM [activator, partial curve, poor fit]",–
COCCCn1c(C(=O)Nc2ccc3c(c2)OCO3)cc2c(=O)n3ccccc3nc21,–,inactive: 19.9%
C/C(=N\Nc1nc(N2CCCCC2)nc(N2CCOCC2)n1)c1cccs1,"inconclusive: 18.4 µM [activator, single point]",–
O=C(NNc1nc(Nc2ccccc2)nc(N2CCOCC2)n1)Nc1ccc(Cl)cc1,"inconclusive: 23.1 µM [activator, single point]",–
CCN(CC)c1ccc(/C=C/C(=O)C2C(=O)C=C(C)OC2=O)cc1 (centres undefined),"inconclusive: 29.1 µM [activator, single point]",–
Cc1ccc2nc3c(cc(C(=O)NCC4CCCO4)c(=N)n3CCCOC(C)C)c(=O)n2c1 (centres undefined),"inconclusive: 18.4 µM [activator, partial curve, poor fit]",–
CC1(C)Cc2nc3[nH]c(=S)n(-c4ccccc4)c(=O)c3cc2CO1,"inconclusive: 23.1 µM [activator, single point]",–
COc1ccccc1NC(=O)COc1ccc(-c2nn(C)c(=O)c3ccccc23)cc1,–,inactive: 0.0839%
O=C1CCCC(=O)C1C(=O)C1CCN(S(=O)(=O)c2ccccc2)CC1,"inconclusive: 0.164 µM [activator, full curve, poor fit]",–
CC1(C)Cc2c(sc(NC(=O)C(=O)N3CCN(CCO)CC3)c2C(N)=O)CO1,–,inactive: -5.38%
COc1cc2ccccc2cc1C(=O)N1CCc2ccccc21,"inconclusive: 31.6 µM [activator, single point]",–
O=C(Nc1ccc2c(c1)CCC2)c1ccc(F)c(S(=O)(=O)N2CCOCC2)c1,"inconclusive: 2.59 µM [activator, single point]",–
CC(=O)SC(C[N+](=O)[O-])c1cn(C(C)=O)c2ccccc12 (centres undefined),"inconclusive: 18.4 µM [activator, single point]",–
COC1C(OC(=O)/C=C/C=C/C=C/C=C/C(=O)O)CCC2(CO2)C1C1(C)OC1CC=C(C)C (centres undefined),"inconclusive: 21.1 µM [activator, single point]",–
CN1\C(=C/C=C/C=C/C=[N+](C)C)C(C)(C)c2ccccc21,–,inactive: -91.5%
Cc1ccc(-n2cc(-c3ccc([N+](=O)[O-])cc3)[nH]c2=S)c(C)c1,"inconclusive: 7.31 µM [activator, single point]",–
O=C(c1ccco1)N1CCN(C(=O)C(Sc2ccccc2)c2ccccc2)CC1 (centres undefined),–,inactive: -4.38%
Cc1cc(C)cc(C(=O)Nc2nc3ccccc3[nH]2)c1,"inconclusive: 0.708 µM [activator, full curve]",–
COc1ccc(C(O)c2nc3ccccc3n2C(C)C)cc1 (centres undefined),"inconclusive: 14.6 µM [activator, partial curve]",–
CCOc1ccccc1OCC(=O)NCCc1ccc(S(N)(=O)=O)cc1,"inconclusive: 0.231 µM [activator, single point]",–
COCCCNC(=S)N1CCCN(c2nc3cc(C)ccc3cc2C#N)CC1,"inconclusive: 25.9 µM [activator, single point]",–

# Of the compounds above, 2 contain fluorine.
Structure (SMILES),Potency,re-replication activation
OCC1(Cc2cccc(C(F)(F)F)c2)CCN(Cc2cc(F)cc(F)c2)CC1,"inconclusive: 35.5 µM [activator, partial curve, poor fit]",–
O=C(Nc1ccc2c(c1)CCC2)c1ccc(F)c(S(=O)(=O)N2CCOCC2)c1,"inconclusive: 2.59 µM [activator, single point]",–

# Remaining list, next part:

Structure (SMILES),Potency,re-replication activation
O=C(/C=C/c1ccc(Cl)cc1Cl)c1cccnc1,"inconclusive: 18.4 µM [activator, single point]",–
Cc1ccc(N(CC(N)=O)C2SC(=O)N(Cc3ccccc3)C2=O)cc1 (centres undefined),"inconclusive: 29.1 µM [activator, single point]",–
COc1ccccc1NC(=O)COc1ccccc1,"inconclusive: 29.1 µM [activator, single point]",–
COc1cc(C(=O)Nc2c(C)cc(C)cc2C)c(Br)c(OC)c1OC,"inconclusive: 9.2 µM [activator, partial curve, poor fit]",–
NC(=O)c1cccc(N=Cc2cc(Cl)cc(Cl)c2O)c1,–,inactive: 23.1%
COc1ccc(NC(=O)CN(C)C(=O)C(NC(=O)c2ccco2)C(C)C)cc1 (centres undefined),–,inactive: -1.77%
CN1C(=O)/C(=C/c2ccc3c(c2)OCO3)N=C1c1ccccc1,–,inactive: -3.41%
O=C1N/C(=N\N=C\c2ccco2)SC1Cc1ccccc1[N+](=O)[O-] (centres undefined),"inconclusive: 25.9 µM [activator, single point]",–
O=C(Nc1ccc(N2CCCC2)cc1)C(Cl)c1ccccc1 (centres undefined),"inconclusive: 18.4 µM [activator, single point]",–
Cc1ccc(-c2nnc(N3CCN(CCO)CC3)c3ccccc23)cc1,–,inactive: -0.896%
COC(=O)c1sc(S(=O)(=O)N2CCN(CCO)CC2)c(C(=O)OC)c1C,"inconclusive: 14.6 µM [activator, partial curve]",–
COc1ccc(N=CC2CCCCC2=O)c([N+](=O)[O-])c1 (centres undefined),–,inactive: -14.8%
CN1C(=O)c2ccc(NC(=O)c3cccc(N4C(=O)CCC4=O)c3)cc2C1=O,"inconclusive: 2.59 µM [activator, single point]",–
CC1=NN(c2ccc(C(F)(F)F)cn2)C(=O)C1,"inconclusive: 18.4 µM [activator, single point]",–
Cc1cc(Cl)ccc1OCc1nc(-c2ccc(O)cc2)n[nH]1,–,inactive: 1.32%
Cc1ccc(C)c(N2CCN(C(=O)CCCOc3cc(=O)n(C)c4ccccc34)CC2)c1,"inconclusive: 29.1 µM [activator, partial curve, poor fit]",–
COc1ccc(C(=O)Nc2ccccc2C(=O)NCc2cccnc2)cc1OC,–,inactive: 9.65%
CC(Oc1cccnc1[N+](=O)[O-])C(=O)N1CCc2ccccc21 (centres undefined),"inconclusive: 20.6 µM [activator, partial curve]",–
O=C(COc1ccc(Br)cc1)NCCN1CCCC1,"inconclusive: 0.0046 µM [activator, full curve, poor fit]",–
Cc1cc(=O)[nH]c(SCC(=O)Nc2c(C)n(C)n(-c3ccccc3)c2=O)c1C#N,"inconclusive: 23.1 µM [activator, single point]",–
Cc1ccc2c(c1)[nH]c1c(=O)n(CCN3CCNCC3)cnc12,"inconclusive: 0.0052 µM [activator, full curve, poor fit]",–
O=C(CCC(=O)NCc1ccccc1)NCc1ccccc1,–,inactive: 2.31%
Cc1ccc(/C=C2\SC(=S)N(CCC(=O)Nc3cccnc3)C2=O)cc1,–,inactive: 0.896%

# Some of the entries so far, with bars between the fields.
Structure (SMILES) | Potency | re-replication activation
CN1C(=O)/C(=C/c2ccc3c(c2)OCO3)N=C1c1ccccc1 | – | inactive: -3.41%
O=C1N/C(=N\N=C\c2ccco2)SC1Cc1ccccc1[N+](=O)[O-] (centres undefined) | inconclusive: 25.9 µM [activator, single point] | –

# Following part.

Structure (SMILES),Potency,re-replication activation
C[C@@H](C(=O)N[C@@H](Cc1c[nH]c2ccccc12)C(=O)O)n1nnc2ccccc2c1=O,"inconclusive: 10.3 µM [activator, partial curve, poor fit]",–
COc1ccc(N(C(=O)C(C)C)S(=O)(=O)c2cccc3cccnc23)cc1,"inconclusive: 5.17 µM [activator, single point]",–
O=C(NC(=S)Nc1ccccc1O)c1cccnc1,"inconclusive: 29.1 µM [activator, single point]",–
COc1ccc2c(C)cc3n[nH]c(=S)n3c2c1,–,inactive: -30%
CCCOc1ccc(/C=N/NC(=O)CN2CCCCC2)cc1OCC,"inconclusive: 13 µM [activator, partial curve, poor fit]",–
Cc1cc(C)c(CN2CCC(CO)(CCOc3ccccc3)CC2)cc1C,"inconclusive: 29.1 µM [activator, single point]",–
COc1ccccc1Cn1c(=S)[nH]c2ccccc2c1=O,–,inactive: 0.431%
Cc1c(C(=O)C(=O)N2CCCc3ccccc32)c2ccccc2n1C,"inconclusive: 29.1 µM [activator, single point]",–
COc1ccc(NCc2nnc(SCC(=O)Nc3nc(-c4ccccc4)cs3)n2-c2ccccc2)cc1,"inconclusive: 6.51 µM [activator, single point]",–
Clc1cc(Br)ccc1OCCOCCN1CCCC1,"inconclusive: 4.61 µM [activator, full curve, poor fit]",–
O=C(/C=C/c1ccccc1)NC(NC(=S)Nc1ccc(C(=O)O)cc1)C(Cl)(Cl)Cl (centres undefined),–,inactive: -1.15%
N/C(=N\OC(=O)CCCc1ccccc1)c1ccccc1Cl,"inconclusive: 29.1 µM [activator, partial curve, poor fit]",–
CC1(C)Cc2sc3c(=O)[nH]c(=S)[nH]c3c2CO1,–,inactive: -3.68%
CCOC(=O)Cn1nc2sc3ccccc3n2c(=O)c1=O,"inconclusive: 29.1 µM [activator, single point]",–
COc1ccccc1Cn1c(=S)[nH]c2cc(C(=O)NC(C)C)ccc2c1=O,"inconclusive: 6.51 µM [activator, partial curve, poor fit]",–
CCOc1ccc(CN(C)C(=O)CCl)cc1,active: 16.4 µM,–
COc1ccc(NC(=O)CN(C)C(=O)COc2ccccc2Cc2ccccc2)cc1,–,inactive: -31.8%
Cc1ccc(C(=O)c2oc3ccccc3c2NC(=O)c2cc(-c3ccccc3O)n[nH]2)cc1,active: 18.4 µM,–
O=C1OC(c2ccccc2)=C/C1=C/N1CCOCC1,"inconclusive: 29.1 µM [activator, single point]",–
C[C@@H](C(=O)NCC1CC1)[C@@H]1C[C@@]1(C)[C@@H](NC(=O)OCc1ccccc1)c1ccccc1,"inconclusive: 29.1 µM [activator, single point]",–
C[C@H](NC(=O)c1nc[nH]c1C(=O)NCC(=O)OC(C)(C)C)C(=O)OC(C)(C)C,–,inactive: 2.55%
Cc1cc(S(=O)(=O)N2CCCC(N3CCOCC3)C2)c(C)cc1Cl (centres undefined),"inconclusive: 18.4 µM [activator, single point]",–
CCOC(=O)C(=Cc1ccc(-c2ccsc2C(=O)OC)o1)C(=O)OCC,"inconclusive: 5.8 µM [activator, single point]",–
